Patent US20090280488A1
No constants are given. Whether binding was seen depends on the method and setting. Binding seen in cells or lysates may run through a third protein. Some results given as binding are weak or reduced against the parent protein; the word gives no strength.

By UniProt entry, the sequences of proteins in these tests, tags left out. Where a name states a change or a piece, a line headed by the entry shows the natural chain unless it says otherwise. Chains listed by the source or under a name are the forms on record and can include a tag or linker.
mutant ataxin-1 (AT1-82Q) (P54253, form named): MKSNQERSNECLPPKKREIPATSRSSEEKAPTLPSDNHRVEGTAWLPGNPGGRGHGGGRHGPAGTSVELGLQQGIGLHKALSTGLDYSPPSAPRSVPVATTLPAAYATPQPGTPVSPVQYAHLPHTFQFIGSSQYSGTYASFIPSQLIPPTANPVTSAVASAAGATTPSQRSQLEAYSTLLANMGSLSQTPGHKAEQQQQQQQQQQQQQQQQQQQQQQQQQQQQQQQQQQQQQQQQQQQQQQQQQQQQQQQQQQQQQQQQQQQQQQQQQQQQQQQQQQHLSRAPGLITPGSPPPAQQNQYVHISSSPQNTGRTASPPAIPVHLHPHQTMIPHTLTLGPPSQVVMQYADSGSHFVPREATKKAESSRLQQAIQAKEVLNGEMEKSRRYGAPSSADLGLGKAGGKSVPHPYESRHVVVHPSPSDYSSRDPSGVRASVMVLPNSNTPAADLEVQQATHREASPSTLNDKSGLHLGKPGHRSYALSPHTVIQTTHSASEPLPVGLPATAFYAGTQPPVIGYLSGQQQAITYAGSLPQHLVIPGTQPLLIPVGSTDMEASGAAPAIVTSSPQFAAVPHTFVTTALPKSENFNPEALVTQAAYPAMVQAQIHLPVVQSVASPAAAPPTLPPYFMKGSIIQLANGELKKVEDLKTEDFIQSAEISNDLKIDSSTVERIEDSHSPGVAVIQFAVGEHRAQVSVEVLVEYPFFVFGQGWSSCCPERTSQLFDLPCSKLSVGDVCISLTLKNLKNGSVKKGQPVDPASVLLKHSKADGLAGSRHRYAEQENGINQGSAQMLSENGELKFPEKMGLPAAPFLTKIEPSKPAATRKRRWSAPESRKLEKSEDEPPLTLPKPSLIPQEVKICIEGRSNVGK
mutant huntingtin (Htt111Q) (P42858, form named): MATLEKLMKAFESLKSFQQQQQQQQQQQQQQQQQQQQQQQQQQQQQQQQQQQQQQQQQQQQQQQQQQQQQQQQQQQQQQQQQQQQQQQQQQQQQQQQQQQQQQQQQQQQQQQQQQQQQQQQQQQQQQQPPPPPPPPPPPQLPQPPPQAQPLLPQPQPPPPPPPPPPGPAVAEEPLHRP
UniProt P63158: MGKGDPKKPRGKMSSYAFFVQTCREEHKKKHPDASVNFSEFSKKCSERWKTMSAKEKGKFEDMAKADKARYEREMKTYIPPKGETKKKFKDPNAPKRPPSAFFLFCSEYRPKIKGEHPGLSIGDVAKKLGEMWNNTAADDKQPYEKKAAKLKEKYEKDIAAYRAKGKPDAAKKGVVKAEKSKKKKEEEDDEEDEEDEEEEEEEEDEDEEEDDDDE

Tests used:
[1] = molecular target: mutant ataxin-1 (AT1-82Q) (human) (UniProt P54253); test: GST pull-down from HeLa cell lysate, blot with CAG53b
[2] = molecular target: mutant huntingtin (Htt111Q) (human) (UniProt P42858); test: as above
[3] = molecular target: mutant ataxin-1 (AT1-82Q) (human) (UniProt P54253); test: co-immunoprecipitation from HeLa cell lysate with anti-HMGB or anti-EGFP antibody, blot with CAG53b
[4] = molecular target: mutant huntingtin (Htt111Q) (human) (UniProt P42858); test: as above

Row | binding [2] | binding [4] | Substance | binding [1] | binding [3]
1 | binds | – | GST-HMGB1 fusion protein (rat HMGB1 from pGEX-3X-HMGB1) (from UniProt P63158 1-215) | binds | –
2 | – | binds | HMGB1-EGFP protein (rat HMGB1 expressed from pEGFP-N1-HMGB1) (from UniProt P63158 1-215) | – | binds
